According to patent publication US9643977B2, “Necroptosis inhibitors and methods of use therefor” (President and Fellows of Harvard College, priority 2011, dated 2017):
For at least one compound, name, drawing or mass did not settle the structure.

System: TNFα secretion by BV2 cells
Experiment: TNFα ELISA, BV2 cells treated with Aβ42
Format: cell-based
Settings: 10 μM, 30 min before Aβ42 200 nM, FIG. 11

Structure (SMILES): Oc1c2ccccc2c2c3c(cccc13)N=N2 [SP600125]
- TNFα production after Aβ42 exposure: inhibitory effect
